Where a name gives a salt, the structure may show the parent alone. The list shows a part of the results. Hit calls seldom repeat between salt and free forms of one compound.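 In K562 cells expressing nanoluciferase-fused kinases, luminescence was recorded at 4 h intervals between 2 and 18 h, normalized as percent of control with DMSO at 100% and a positive control at 0%. A significant (2 sigma) signal drop marks a time point as decreased. The authors' rule for a hit is not shown and takes in more than the number of time points.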
Target: BLK (UniProt P51451)
Assay: kinase-Nluc reporter destabilization hit call (1 = scored as downregulated) (binary); higher = compound decreases kinase abundance
Conditions: K562; 2-18 h

Protein sequences, listed by entry. Tags and fused reporters are not part of them. Lines headed by an entry give the natural chain unless they say otherwise; changes in a name come on top.
UniProt P51451: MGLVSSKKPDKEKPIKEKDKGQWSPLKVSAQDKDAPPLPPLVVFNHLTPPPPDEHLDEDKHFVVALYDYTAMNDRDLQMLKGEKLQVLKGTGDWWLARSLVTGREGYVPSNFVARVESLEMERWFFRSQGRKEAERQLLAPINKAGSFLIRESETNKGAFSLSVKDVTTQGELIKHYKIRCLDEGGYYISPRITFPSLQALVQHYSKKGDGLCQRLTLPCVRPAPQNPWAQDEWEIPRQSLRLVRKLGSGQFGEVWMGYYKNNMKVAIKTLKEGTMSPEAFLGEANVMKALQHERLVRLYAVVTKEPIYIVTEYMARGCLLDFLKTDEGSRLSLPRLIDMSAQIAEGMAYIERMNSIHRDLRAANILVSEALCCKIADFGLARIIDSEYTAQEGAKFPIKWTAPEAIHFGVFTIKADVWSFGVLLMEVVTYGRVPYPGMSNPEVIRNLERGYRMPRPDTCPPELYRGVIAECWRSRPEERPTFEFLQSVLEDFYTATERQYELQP
UniProt P51813: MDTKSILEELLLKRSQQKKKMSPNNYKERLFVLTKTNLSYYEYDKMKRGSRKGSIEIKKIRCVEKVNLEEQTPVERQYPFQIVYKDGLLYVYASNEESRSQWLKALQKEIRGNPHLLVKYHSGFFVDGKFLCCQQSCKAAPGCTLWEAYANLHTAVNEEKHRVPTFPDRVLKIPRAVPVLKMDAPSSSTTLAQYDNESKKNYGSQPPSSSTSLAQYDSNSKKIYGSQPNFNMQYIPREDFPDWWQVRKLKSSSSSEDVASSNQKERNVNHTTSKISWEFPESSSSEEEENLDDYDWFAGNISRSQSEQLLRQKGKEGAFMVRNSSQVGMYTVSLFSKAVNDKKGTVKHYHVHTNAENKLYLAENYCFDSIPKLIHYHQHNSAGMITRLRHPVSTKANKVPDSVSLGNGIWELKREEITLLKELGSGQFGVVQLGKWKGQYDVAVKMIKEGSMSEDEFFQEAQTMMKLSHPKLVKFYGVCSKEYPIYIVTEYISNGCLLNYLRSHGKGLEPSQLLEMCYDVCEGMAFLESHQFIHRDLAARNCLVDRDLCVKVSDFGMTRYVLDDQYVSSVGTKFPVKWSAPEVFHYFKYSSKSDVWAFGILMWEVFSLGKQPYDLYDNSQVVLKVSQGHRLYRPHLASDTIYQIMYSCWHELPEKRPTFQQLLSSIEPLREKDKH

kinase-Nluc reporter destabilization hit call, inactive:
O=C(O)c1ccc(/C=C/S(=O)(=O)Cc2ccc(Cl)cc2)cc1 [Recilisib] (10 µM) 0, Nc1nc(NCCNc2ncc(-n3ccnc3)c(-c3ccc(Cl)cc3Cl)n2)ccc1[N+](=O)[O-] (2.5 µM) 0, Cc1cnc(NC(=O)c2cc(Oc3cnc(C(=O)N(C)C)nc3)c3cc(C)oc3c2)cn1 (10 µM) 0, CNC(=O)CNc1cnc2ccc(-c3ccc(OC)c(OC)c3)cc2n1 (10 µM) 0, N[C@@H]1CCCN(c2c(/C=C3\SC(=O)NC3=O)cccc2-c2ccccc2)C1 (10 µM) 0, CO[C@H]1C[C@@H]2CC[C@@H](C)[C@@](O)(O2)C(=O)C(=O)N2CCCC[C@H]2C(=O)O[C@H]([C@H](C)C[C@@H]2CC[C@@H](OC(=O)C(C)(CO)CO)[C@H](OC)C2)CC(=O)[C@H](C)/C=C(\C)[C@@H](O)[C@@H](OC)C(=O)[C@H](C)C[C@H](C)/C=C/C=C/C=C/1C [Temsirolimus] (2.5 µM) 0, COc1cc2nccc(Oc3ccc(NC(=O)c4cn(C(C)C)c(=O)n(-c5ccc(F)cc5)c4=O)cc3F)c2cc1OC (0.5 µM) 0, C=C1CCC[C@]2(C)C=C3OC(=O)C(C)=C3C[C@@H]12 [Atractylenolide I] (10 µM) 0, C=CC(=O)Nc1cc(Nc2nccc(-c3cn(C)c4ccccc34)n2)c(OC)cc1OCCN(C)C [Rezivertinib] (2.5 µM) 0, C=C1C(=O)[C@@]23[C@H](O)C[C@@H]4C(C)(C)C(=O)CC[C@@]4(C)[C@@H]2CC[C@@H]1[C@H]3O [Glaucocalyxin A] (2.5 µM) 0, NC1(C(=O)NCCCn2cc(-c3ccc(OC(F)(F)F)cc3)c3cc(CN4CCN(Cc5c(Cl)cccc5Cl)CC4)ccc32)CCNCC1 (2.5 µM) 0, CC(Sc1nc2c(cnn2-c2cccc(Cl)c2)c(=O)[nH]1)C(N)=O (centres undefined) (10 µM) 0, Fc1ccc2[nH]ccc2c1-c1nc(N2CCOCC2)c2sc(CN3CCN(CC4CC4)CC3)cc2n1 (10 µM) 0, Cn1cc(-c2cc(Oc3cc(F)c(NC(=O)C4(C(=O)Nc5ccccc5)CC4)cc3F)ccn2)cn1 (2.5 µM) 0, COc1ccc(S(=O)(=O)Nc2cc(-c3c(O)ccc4ccccc34)c(O)c3ccccc23)cc1 (10 µM) 0, Cn1c2cc([S+](C)[O-])sc2c2cnn(Cc3cccc(N)c3)c(=O)c21 (centres undefined) (2.5 µM) 0, O=C(NCCO)c1cc(C(=O)NCCO)cc(C(=O)NCCO)c1 (10 µM) 0, N#Cc1cnc2c(Cl)cc(NCc3cn(CCN4CCCCCC4)nn3)cc2c1Nc1ccc(F)c(Cl)c1 [Cot inhibitor-1] (10 µM) 0, Cn1c(=O)c2c(nc(S(C)(=O)=O)n2C)n(CC#Cc2cccc(O)c2)c1=O (2.5 µM) 0, Cc1ccc(C)c(OCCn2cc(C(=O)O)c3ccccc32)c1 (10 µM) 0, C=CC(=O)Nc1ccc(C(=O)Nc2[nH]nc3c2CN(C(=O)N[C@H](CN(C)C)c2ccccc2)C3(C)C)cc1 (10 µM) 0, Nc1ncnc2c1nc(Br)n2[C@@H]1O[C@@H]2COP(=O)(O)O[C@H]2[C@H]1O [8-Bromo-cAMP sodium salt] (10 µM) 0, O=c1[nH]ccc2nc(-c3ccc(CN4CCC(c5nc(-c6ccccn6)n[nH]5)CC4)cc3)c(-c3ccccc3)cc12 (10 µM) 0, COc1ccc(Nc2ncc(C(F)(F)F)c(NC3CC3)n2)cc1OC (10 µM) 0, O=C1NC(=O)/C(=C\c2c[nH]c(=O)c(-c3ccc(N4CCNCC4)nc3)c2)S1 [Protein kinase inhibitors 1 hydrochloride] (10 µM) 0, CCN(CC)CCCC(C)Nc1nc(C)cc(Nc2ccc3nc(C)cc(N)c3c2)n1 (centres undefined) (10 µM) 0

Target: BMX (UniProt P51813)
Assay: as above
Conditions: K562; 2-18 h

kinase-Nluc reporter destabilization hit call, inactive:
CC(C)CCN1c2nc(Nc3cc(F)c(O)c(F)c3)ncc2N(C)C(=O)C1C (centres undefined) (2.5 µM) 0, CC(C)=CC[C@@H](O)C1=CC(=O)c2c(O)ccc(O)c2C1=O [Shikonin] (10 µM) 0, CCC(=O)Nc1cccc(Oc2nc(Nc3ccc(N4CCN(C)CC4)cc3OC)ncc2Cl)c1 (10 µM) 0, CC(C)=CCC/C(C)=C/CC/C(C)=C/C=C/C(C)=C/C(=O)O [Peretinoin] (10 µM) 0, COc1ccc2c(Oc3ccc4c(C(=O)Nc5ccccc5N)cccc4c3)ccnc2c1 [Chiauranib] (10 µM) 0, Cc1nn(C)cc1-c1nc2c(N3CCN(Cc4ccc(Cl)cc4)CC3)c(Cl)cnc2[nH]1 (10 µM) 0, CNC(=O)c1cc2c(Oc3ccc(NC(=O)C4(C(=O)Nc5ccc(F)cc5)CC4)cc3)ccnc2cc1OC (2.5 µM) 0, O=C(Nc1cccnc1)c1cc(-c2ccnc(F)c2)ccc1OCc1ccccc1 (10 µM) 0, CN(C)c1ccc(-c2nc3ncc(Cl)c(N4CCN(CC(=O)Nc5nccs5)CC4)c3[nH]2)cc1 (2 µM) 0, Cc1cc(C(=O)NC(C)(C)C)cc(C#Cc2ccc3c4c(oc3c2)C(C)(C)c2cc(NS(C)(=O)=O)ccc2C4=O)n1 (10 µM) 0, O=C(O)c1cc(N(Cc2ccccc2O)Cc2cc(O)ccc2O)ccc1O [Lavendustin A] (10 µM) 0, C[C@@H](Nc1ncnc2[nH]c(-c3ccc(O)cc3)cc12)c1ccccc1 (2.5 µM) 0, O=C(O)c1ccc(/C=C/S(=O)(=O)Cc2ccc(Cl)cc2)cc1 [Recilisib] (10 µM) 0, Nc1nc(NCCNc2ncc(-n3ccnc3)c(-c3ccc(Cl)cc3Cl)n2)ccc1[N+](=O)[O-] (2.5 µM) 0, Cc1cnc(NC(=O)c2cc(Oc3cnc(C(=O)N(C)C)nc3)c3cc(C)oc3c2)cn1 (10 µM) 0, CNC(=O)CNc1cnc2ccc(-c3ccc(OC)c(OC)c3)cc2n1 (10 µM) 0, N[C@@H]1CCCN(c2c(/C=C3\SC(=O)NC3=O)cccc2-c2ccccc2)C1 (10 µM) 0, CO[C@H]1C[C@@H]2CC[C@@H](C)[C@@](O)(O2)C(=O)C(=O)N2CCCC[C@H]2C(=O)O[C@H]([C@H](C)C[C@@H]2CC[C@@H](OC(=O)C(C)(CO)CO)[C@H](OC)C2)CC(=O)[C@H](C)/C=C(\C)[C@@H](O)[C@@H](OC)C(=O)[C@H](C)C[C@H](C)/C=C/C=C/C=C/1C [Temsirolimus] (2.5 µM) 0, COc1cc2nccc(Oc3ccc(NC(=O)c4cn(C(C)C)c(=O)n(-c5ccc(F)cc5)c4=O)cc3F)c2cc1OC (0.5 µM) 0, C=C1CCC[C@]2(C)C=C3OC(=O)C(C)=C3C[C@@H]12 [Atractylenolide I] (10 µM) 0, C=CC(=O)Nc1cc(Nc2nccc(-c3cn(C)c4ccccc34)n2)c(OC)cc1OCCN(C)C [Rezivertinib] (2.5 µM) 0, C=C1C(=O)[C@@]23[C@H](O)C[C@@H]4C(C)(C)C(=O)CC[C@@]4(C)[C@@H]2CC[C@@H]1[C@H]3O [Glaucocalyxin A] (2.5 µM) 0, NC1(C(=O)NCCCn2cc(-c3ccc(OC(F)(F)F)cc3)c3cc(CN4CCN(Cc5c(Cl)cccc5Cl)CC4)ccc32)CCNCC1 (2.5 µM) 0, CC(Sc1nc2c(cnn2-c2cccc(Cl)c2)c(=O)[nH]1)C(N)=O (centres undefined) (10 µM) 0, Fc1ccc2[nH]ccc2c1-c1nc(N2CCOCC2)c2sc(CN3CCN(CC4CC4)CC3)cc2n1 (10 µM) 0, Cn1cc(-c2cc(Oc3cc(F)c(NC(=O)C4(C(=O)Nc5ccccc5)CC4)cc3F)ccn2)cn1 (2.5 µM) 0, COc1ccc(S(=O)(=O)Nc2cc(-c3c(O)ccc4ccccc34)c(O)c3ccccc23)cc1 (10 µM) 0, Cn1c2cc([S+](C)[O-])sc2c2cnn(Cc3cccc(N)c3)c(=O)c21 (centres undefined) (2.5 µM) 0, O=C(NCCO)c1cc(C(=O)NCCO)cc(C(=O)NCCO)c1 (10 µM) 0, N#Cc1cnc2c(Cl)cc(NCc3cn(CCN4CCCCCC4)nn3)cc2c1Nc1ccc(F)c(Cl)c1 [Cot inhibitor-1] (10 µM) 0, Cn1c(=O)c2c(nc(S(C)(=O)=O)n2C)n(CC#Cc2cccc(O)c2)c1=O (2.5 µM) 0, Cc1ccc(C)c(OCCn2cc(C(=O)O)c3ccccc32)c1 (10 µM) 0, C=CC(=O)Nc1ccc(C(=O)Nc2[nH]nc3c2CN(C(=O)N[C@H](CN(C)C)c2ccccc2)C3(C)C)cc1 (10 µM) 0, Nc1ncnc2c1nc(Br)n2[C@@H]1O[C@@H]2COP(=O)(O)O[C@H]2[C@H]1O [8-Bromo-cAMP sodium salt] (10 µM) 0, O=c1[nH]ccc2nc(-c3ccc(CN4CCC(c5nc(-c6ccccn6)n[nH]5)CC4)cc3)c(-c3ccccc3)cc12 (10 µM) 0, COc1ccc(Nc2ncc(C(F)(F)F)c(NC3CC3)n2)cc1OC (10 µM) 0, O=C1NC(=O)/C(=C\c2c[nH]c(=O)c(-c3ccc(N4CCNCC4)nc3)c2)S1 [Protein kinase inhibitors 1 hydrochloride] (10 µM) 0, CCN(CC)CCCC(C)Nc1nc(C)cc(Nc2ccc3nc(C)cc(N)c3c2)n1 (centres undefined) (10 µM) 0

Source: the supplement of paper PMC12823440, “Inhibitors supercharge kinase turnover through native proteolytic circuits” (Nature, 2025)
